Values from PubChem BioAssay AID1259308 (NCATS, 2017).
The deposit covers about 59,000 reagents; this is a part drawn at random. About 1,510 of them (2.6%) count as active. 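Calls use total luciferase alone and ignore viability, so some active siRNAs may act by altering cell number.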 Entries without a mark were called inactive. The numbers tell different reagents against one gene apart. Further read-outs or replicates are left out here.

Screen: 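Knock-downs that increase output of a recombinant reporter protein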 (primary screen)
Cells: human HEK293 embryonic kidney cells stably expressing firefly luciferase (HEK-CMV-Luc2-Hygro)
Reagents: single siRNA against human genes, 0.8 pmol siRNA per well
Time to read-out: 72 h
Read-out: 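Luciferase light (ONE-Glo) measured on one replicate plate set and viability (CellTiter-Glo) on the other, scaled to a negative control siRNA, with robust z-scores and luciferase per cell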
Direction: total luciferase, z-score and total luciferase, % of control: higher = more reporter protein produced; luciferase per cell, z-score: higher = more reporter output per viable cell
Active means: 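Active when the median/MAD z-score for overall luciferase is greater than 3; a gene was taken forward for validation with new siRNAs if at least two of its three siRNAs passed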
Calls: active = raised luciferase; inactive = no rise

| gene | reagent no. | total luciferase, z-score | total luciferase, % of control | luciferase per cell, z-score |
| --- | --- | --- | --- | --- |
| MIPEPP3 (mitochondrial intermediate peptidase pseudogene 3) | 1 | 1.75 | 117 | 0.407 |
| MIPEPP3 (mitochondrial intermediate peptidase pseudogene 3) | 2 | 0.878 | 99.3 | 1.11 |
| MIPEPP3 (mitochondrial intermediate peptidase pseudogene 3) | 3 | 0.0747 | 83.4 | -0.395 |
| SDSL (serine dehydratase like) | 1 | -0.709 | 67.8 | -0.269 |
| SDSL (serine dehydratase like) | 2 | -0.3 | 75.9 | -1.16 |
| SDSL (serine dehydratase like) | 3 | -2.15 | 39.2 | -1.23 |
| PLD1 (phospholipase D1) | 1 | -0.236 | 77.2 | -0.411 |
| PLD1 (phospholipase D1) | 2 | 0.43 | 90.4 | 0.341 |
| PLD1 (phospholipase D1) | 3 | 2.19 | 125 | 1.07 |
| MSANTD1 (Myb/SANT DNA binding domain containing 1) | 1 | 1.48 | 111 | 1.58 |
| MSANTD1 (Myb/SANT DNA binding domain containing 1) | 2 | 0.859 | 99 | 0.758 |
| MSANTD1 (Myb/SANT DNA binding domain containing 1) | 3 | -1.47 | 52.7 | -0.817 |
| PCGF6 (polycomb group ring finger 6) | 1 | -0.471 | 72.5 | -0.717 |
| PCGF6 (polycomb group ring finger 6) | 2 | -0.659 | 68.8 | -0.486 |
| PCGF6 (polycomb group ring finger 6) | 3 | -1.12 | 59.6 | -0.543 |

Continued; the last 4 above are carried over.
| gene | reagent no. | total luciferase, z-score | total luciferase, % of control | luciferase per cell, z-score |
| --- | --- | --- | --- | --- |
| MSANTD1 (Myb/SANT DNA binding domain containing 1) | 3 | -1.47 | 52.7 | -0.817 |
| PCGF6 (polycomb group ring finger 6) | 1 | -0.471 | 72.5 | -0.717 |
| PCGF6 (polycomb group ring finger 6) | 2 | -0.659 | 68.8 | -0.486 |
| PCGF6 (polycomb group ring finger 6) | 3 | -1.12 | 59.6 | -0.543 |
| PHYHIPL (phytanoyl-CoA 2-hydroxylase interacting protein like) | 1 | 0.894 | 99.7 | 0.851 |
| PHYHIPL (phytanoyl-CoA 2-hydroxylase interacting protein like) | 2 | -0.789 | 66.2 | 0.51 |
| PHYHIPL (phytanoyl-CoA 2-hydroxylase interacting protein like) | 3 | -1.42 | 53.5 | -1.47 |
| STATH (statherin) | 1 | -0.259 | 76.7 | 0.33 |
| STATH (statherin) | 2 | -1.17 | 58.5 | -0.296 |
| STATH (statherin) | 3 | -0.0648 | 80.6 | -0.155 |
| LINC01124 (long independently transcribed non-coding RNA 1124) | 1 | 0.112 | 84.1 | -0.172 |
| LINC01124 (long independently transcribed non-coding RNA 1124) | 2 | -0.161 | 78.7 | -0.433 |
| LINC01124 (long independently transcribed non-coding RNA 1124) | 3 | -1.05 | 60.9 | -1.31 |
| TMEM150C (transmembrane protein 150C) | 1 | -0.378 | 74.4 | -0.562 |
| TMEM150C (transmembrane protein 150C) | 2 | -0.692 | 68.1 | -0.461 |
| TMEM150C (transmembrane protein 150C) | 3 | -0.269 | 76.5 | -0.956 |
| IAPP (islet amyloid polypeptide) | 1 | -0.404 | 73.8 | -0.342 |
| IAPP (islet amyloid polypeptide) | 2 | -1.61 | 49.9 | -1.08 |
| IAPP (islet amyloid polypeptide) | 3 | -0.674 | 68.5 | -0.938 |
| FGF3 (fibroblast growth factor 3) | 1 | 0.389 | 89.6 | 0.542 |
| FGF3 (fibroblast growth factor 3) | 2 | -0.143 | 79 | 0.331 |
| FGF3 (fibroblast growth factor 3) | 3 | 0.0606 | 83.1 | -0.192 |
| GNG4 (G protein subunit gamma 4) | 1 | -0.0351 | 81.2 | -0.669 |
| GNG4 (G protein subunit gamma 4) | 2 | -1.41 | 53.8 | -0.969 |
| GNG4 (G protein subunit gamma 4) | 3 | -0.682 | 68.3 | -1.25 |
| SARS1 (seryl-tRNA synthetase 1) | 1 | 0.46 | 91 | 0.624 |
| SARS1 (seryl-tRNA synthetase 1) | 2 | 0.51 | 92 | 0.0181 |
| SARS1 (seryl-tRNA synthetase 1) | 3 | -1.21 | 57.8 | -1.4 |
